Data published in PubChem BioAssay AID1487 (National Center for Advancing Translational Sciences (NCATS), 2009).
The other results are listed elsewhere or left out. These are further read-outs of the screen, such as a control signal, another cell line or another target. No call is given for them. The list favours compounds with an active or inconclusive main result. Potencies come from curve fits of mixed quality, noted in brackets.

Assay: qHTS Assay for Modulators of Lamin A Splicing
Conditions: HeLa LMNA splicing GFP/RFP minigene ratio, 48 h
Outline: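 Read-out is the ratio of GFP to DsRed2 object intensity, acquired by 488 nm laser-scanning cytometry on HeLa lamin A-EGFP minigene reporter cells. Compound incubation 48 hrs at 37 °C in Opti-MEM with 2% FBS; DMSO 0.5% final.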

[1] = measured here: GFP splicing reporter channel
[2] = measured here: RFP viability control channel

SMILES | AC50 [1] | AC50 [2]
CSc1nc(N2CCOCC2)c2c3c(sc2n1)CCCC3 | 14.1 µM [rising, single point] | 15.8 µM [rising, single point]
CCC(C)(C)NC(=O)C1CCN(c2nc(OC)nc(OC)n2)CC1 | 0.158 µM [rising, full curve, poor fit] | –
CCOc1ccc(NS(=O)(=O)c2cc(NC(=O)c3ccc(C)cc3)ccc2Cl)cc1 | – | 7.08 µM [rising, partial curve]
CCCCN(C)C(=O)CN1C(=O)CCn2nc(-c3cn(C)c4ccccc34)cc21 | 0.0447 µM [falling, full curve, poor fit] | –
CN1CCN(Cc2cc(Cl)c3cccnc3c2OC(=O)c2cccs2)CC1 | 1.78 µM [rising, single point] | 11.2 µM [rising, partial curve]
CC1Cc2ccccc2N1C(=O)c1ccc(N2CCCCC2)c([N+](=O)[O-])c1 (stereo not given) | – | 15.8 µM [rising, single point]
COc1ccc(C(=O)C2CCCN(C(=O)Cc3c(C)noc3C)C2)cc1OC (stereo not given) | 0.0251 µM [falling, full curve, poor fit] | 0.398 µM [falling, full curve, poor fit]
CCc1cccc(NC(=O)c2nc(-c3ccncc3)no2)c1 | – | 0.2 µM [falling, full curve]
CCN1C(=O)c2cccc3c(S(=O)(=O)Nc4ccccn4)ccc1c23 | 6.31 µM [falling, partial curve, poor fit] | –
Cc1ccc(-n2c(C)cc(C(=O)CSc3nnc4ccccn34)c2C)cc1 | 11.2 µM [rising, partial curve] | 14.1 µM [rising, partial curve]
COCC(=O)Nc1cc(Cl)ccc1C | 1.26 µM [rising, single point] | 0.794 µM [rising, single point]
CCOC(=O)Cc1nnc2c(Nc3ccccc3F)nc3nonc3n12 | 12.6 µM [rising, single point] | 15.8 µM [rising, single point]
CCOC(=O)c1cccc(NC(=O)CN(c2ccc(OC)cc2)S(=O)(=O)c2c(C)noc2C)c1 | 22.4 µM [rising, single point] | 31.6 µM [rising, single point]
O=C(CCc1nc(-c2ccc(Cl)cc2)no1)NCC1CCCO1 (stereo not given) | 11.2 µM [falling, single point] | 14.1 µM [falling, single point]
COc1ccc(-c2nc3c(c4c2C[C@H](c2ccccc2)OC4)CN(C(=O)c2ccco2)CC3)c(C)c1 | – | 0.178 µM [falling, full curve, poor fit]
COc1cc2c(cc1OC)CN(C(=O)c1cc3ccccc3oc1=O)CC2 | – | 31.6 µM [rising, single point]
CCc1ccccc1NC(=O)c1cccc(Oc2ccc([N+](=O)[O-])cc2Cl)c1 | – | 0.224 µM [rising, full curve, poor fit]
Cc1cccc(NC(=O)c2ccc([N+](=O)[O-])s2)c1C | – | 35.5 µM [rising, single point]
COc1ccc(CC(=O)NNC(=S)Nc2ccccc2)cc1Br | – | 10 µM [rising, single point]

SMILES | AC50 [1] | AC50 [2]
c1nc(NC2CCCCCC2)c2[nH]cnc2n1 | 14.1 µM [rising, single point] | 17.8 µM [rising, partial curve]
COc1ccc(-c2nnc3ccc(SC)nn23)cc1 | 20 µM [rising, partial curve, poor fit] | 14.1 µM [rising, partial curve, poor fit]
CCc1cccc(OCC(=O)Nc2c[nH]c(=O)[nH]c2=O)c1 | 1 µM [rising, full curve, poor fit] | 3.16 µM [rising, full curve]
COc1ccc(CC(=O)N2CCCc3ccccc32)cc1OC | – | 20 µM [rising, single point]
O=C(c1ccccc1F)N1CCCC(c2ccccc2)C1 (stereo not given) | 5.62 µM [rising, partial curve, poor fit] | –
O=S(=O)(Nc1cccnc1)c1ccc(C2CCCCC2)cc1 | – | 6.31 µM [rising, full curve]
Cc1nn(-c2ccccc2)c(C)c1/C=N/NC(=O)CSc1nnc(SCc2ccc(Cl)cc2)s1 | 12.6 µM [rising, single point] | 17.8 µM [rising, partial curve]
Nc1ccccc1C(=O)NCCN1CCNC1=O | 0.355 µM [falling, partial curve, poor fit] | 0.282 µM [falling, full curve, poor fit]
CCOC(=O)CSc1nc(N)c(C#N)cc1C#N | 20 µM [rising, single point] | 14.1 µM [rising, single point]
CCc1cnc2c(c1SCC(=O)NCc1ccccc1)c(=O)n(C)c(=O)n2C | 17.8 µM [rising, partial curve, poor fit] | –
O=C(N/N=C/c1ccccc1OC(F)F)C1=COCCO1 | 0.398 µM [falling, full curve, poor fit] | –
Cc1ccc(S(=O)(=O)N(CCC#N)C2CCCCC2)c2nsnc12 | – | 14.1 µM [rising, single point]
Cc1ccc2nsnc2c1NC(=O)c1ccccc1[N+](=O)[O-] | 5.62 µM [rising, single point] | 6.31 µM [rising, single point]
O=C(Nc1ccc(Cl)c([N+](=O)[O-])c1)C(Sc1ccccc1)c1ccccc1 (stereo not given) | 35.5 µM [falling, single point] | 35.5 µM [falling, single point]
O=S(=O)(NCCOCC(F)(F)C(F)F)c1ccc2oc3ccccc3c2c1 | – | 15.8 µM [rising, single point]
CN(C)c1ncnc2ccc(-c3cccnc3)cc12 | 15.8 µM [falling, partial curve] | 12.6 µM [falling, single point]
COc1ccc(CCNC(=O)C2CC(c3cccc([N+](=O)[O-])c3)=NO2)cc1 (stereo not given) | – | 35.5 µM [rising, single point]
O=C1NC(c2cccc([N+](=O)[O-])c2)=CCN1c1ccccc1O | 6.31 µM [falling, partial curve, poor fit] | 6.31 µM [falling, single point]
O=C(Nc1nc2cc3c(cc2s1)OCO3)C1=COCCO1 | – | 31.6 µM [rising, single point]

Whole records, quoted from the list. Values in the order: AC50 [1] | AC50 [2]
Nc1ccccc1C(=O)NCCN1CCNC1=O in the list: 0.355 µM [falling, partial curve, poor fit] | 0.282 µM [falling, full curve, poor fit]
Cc1ccc2nsnc2c1NC(=O)c1ccccc1[N+](=O)[O-] in the list: 5.62 µM [rising, single point] | 6.31 µM [rising, single point]
Cc1nn(-c2ccccc2)c(C)c1/C=N/NC(=O)CSc1nnc(SCc2ccc(Cl)cc2)s1 in the list: 12.6 µM [rising, single point] | 17.8 µM [rising, partial curve]
O=C(N/N=C/c1ccccc1OC(F)F)C1=COCCO1 in the list: 0.398 µM [falling, full curve, poor fit] | –

(continued)

SMILES | AC50 [1] | AC50 [2]
CSc1nc(N(C)NC(=O)c2ccccc2)c2ccccc2n1 | – | 2.24 µM [rising, partial curve]
CN1CCN(C(=O)C(N)Cc2ccccc2)CC1 (stereo not given) | 11.2 µM [rising, partial curve, poor fit] | 12.6 µM [rising, partial curve, poor fit]
CCOC(=O)c1ccc(NC(=O)Cn2nnc(-c3ccccc3)n2)cc1 | – | 10 µM [rising, single point]
CCOc1ccc(C(=O)Nc2ccncc2)cc1 | – | 20 µM [rising, partial curve]
O=C(COC(=O)c1ccccc1NS(=O)(=O)c1ccc(Cl)cc1)NCc1ccccc1 | 17.8 µM [rising, single point] | 22.4 µM [rising, single point]
O=C(Nc1cccc(C2=NCCN2)c1)Nc1cccc(C2=NCCN2)c1 | 0.0794 µM [falling, full curve, poor fit] | –
Cc1ccc(-c2nc3ncccn3c2Nc2ccccc2C)o1 | – | 0.631 µM [falling, partial curve, poor fit]
COc1ccc(C(=O)N2CCCC(c3ccccc3)C2)cc1 (stereo not given) | – | 20 µM [rising, partial curve]
COCCCN(C(=S)NC(=O)C12CC3CC(CC(C3)C1)C2)c1c(N)n(Cc2ccccc2)c(=O)[nH]c1=O | 0.0794 µM [falling, full curve, poor fit] | 0.112 µM [falling, full curve, poor fit]
COCCN(C(=O)CSc1nnc2cc(C)c3ccccc3n12)c1c(N)n(Cc2ccccc2)c(=O)[nH]c1=O | 3.98 µM [rising, full curve] | 3.55 µM [rising, full curve]
CCOC(=O)N1CCC(n2c(SCC(=O)OCc3ccccc3)nc3ccsc3c2=O)CC1 | 11.2 µM [rising, partial curve] | 17.8 µM [rising, single point]
CC1=NN(c2ccccc2)C(=O)C1N=Nc1ccccc1 (stereo not given) | – | 31.6 µM [rising, single point]
O=C1CSC(c2ccccc2Br)N1c1ccc(Cl)cn1 (stereo not given) | 0.0224 µM [rising, full curve, poor fit] | –
COc1ccccc1C(CC(=O)Nc1ccc(Cl)cc1)c1ccc(OC(C)C)cc1 (stereo not given) | – | 10 µM [rising, partial curve]
CCOC(=O)N1CCN(S(=O)(=O)c2ccc3c(c2)SCC(=O)N3)CC1 | – | 20 µM [rising, partial curve]
c1ccc(Cc2nc(-c3ccccn3)no2)cc1 | 35.5 µM [rising, single point] | –
Cc1ccccc1OCc1nnc(SCc2cc(=O)c3cc(F)ccc3[nH]2)n1C | 0.0224 µM [rising, full curve, poor fit] | –
C1CCN(C2CCN(c3nc4nonc4nc3N3CCSCC3)CC2)C1 | 1.41 µM [falling, partial curve, poor fit] | 0.562 µM [falling, full curve]
